Results are given in words; binding and its absence hold for the method and conditions named. Some entries that bind do so weakly or less than the wild type. Tags and fused reporters may be left off the sequences shown.
Key:
BMP10 [1] = target: T1, BMP10 (UniProt O95393); test: SPR (Biacore), legend of FIG. 6
T1 sequence (looked up): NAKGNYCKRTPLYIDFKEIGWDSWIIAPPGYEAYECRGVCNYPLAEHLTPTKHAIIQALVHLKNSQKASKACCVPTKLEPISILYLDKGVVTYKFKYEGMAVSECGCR

BMP9 [2] = target: T2, BMP9 (UniProt Q9UK05); test: SPR (Biacore), legend of FIG. 6
T2 sequence (looked up): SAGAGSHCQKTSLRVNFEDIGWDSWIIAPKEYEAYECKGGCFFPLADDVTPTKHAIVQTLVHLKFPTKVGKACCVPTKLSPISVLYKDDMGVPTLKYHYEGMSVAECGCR

GDF11 [3] = target: T3, GDF11 (UniProt O95390); test: SPR (Biacore), legend of FIG. 6
T3 sequence (looked up): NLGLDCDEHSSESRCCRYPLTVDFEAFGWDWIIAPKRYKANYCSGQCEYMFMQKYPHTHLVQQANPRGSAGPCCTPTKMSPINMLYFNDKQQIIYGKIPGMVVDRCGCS

GDF3 [4] = target: T4, GDF3 (UniProt Q9NR23); test: SPR (Biacore), legend of FIG. 6
T4 sequence (looked up): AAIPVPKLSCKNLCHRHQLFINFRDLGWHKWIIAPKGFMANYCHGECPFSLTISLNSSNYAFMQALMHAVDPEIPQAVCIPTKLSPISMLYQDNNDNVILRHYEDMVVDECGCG

GDF8 [5] = target: T5, GDF8 (UniProt O14793); test: SPR (Biacore), legend of FIG. 6
T5 sequence (looked up): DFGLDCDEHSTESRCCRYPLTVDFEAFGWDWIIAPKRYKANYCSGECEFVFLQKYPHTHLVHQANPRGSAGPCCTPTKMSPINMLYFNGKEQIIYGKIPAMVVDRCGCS

activin B [6] = target: T6, activin B (UniProt P09529 293-407); test: SPR (Biacore), legend of FIG. 6
T6 sequence (looked up): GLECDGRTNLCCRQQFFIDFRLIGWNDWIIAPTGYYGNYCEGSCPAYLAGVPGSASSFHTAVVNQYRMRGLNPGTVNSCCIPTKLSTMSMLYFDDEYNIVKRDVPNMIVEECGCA

BMP5 [7] = target: T7, BMP5 (UniProt P22003 317-454, limits assumed); test: SPR (Biacore), legend of FIG. 6
T7 sequence (looked up): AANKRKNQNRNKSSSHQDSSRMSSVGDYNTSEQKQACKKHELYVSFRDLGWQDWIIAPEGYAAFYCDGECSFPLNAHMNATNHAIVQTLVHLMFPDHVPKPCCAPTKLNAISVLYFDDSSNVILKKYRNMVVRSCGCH

BMP6 [8] = target: T8, BMP6 (UniProt P22004 375-513, limits assumed); test: SPR (Biacore), legend of FIG. 6
T8 sequence (looked up): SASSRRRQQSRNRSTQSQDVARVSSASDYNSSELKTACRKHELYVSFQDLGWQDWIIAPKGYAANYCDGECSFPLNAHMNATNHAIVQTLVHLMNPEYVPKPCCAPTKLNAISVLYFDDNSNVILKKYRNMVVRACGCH

BMP10 [9] = target: T1, BMP10; test: SPR (Biacore), worded summary of the table
BMP9 [10] = target: T2, BMP9; test: SPR (Biacore), worded summary of the table
GDF11 [11] = target: T3, GDF11; test: SPR (Biacore), worded summary of the table
GDF3 [12] = target: T4, GDF3; test: SPR (Biacore), worded summary of the table
GDF8 [13] = target: T5, GDF8; test: SPR (Biacore), worded summary of the table
activin B [14] = target: T6, activin B; test: SPR (Biacore), worded summary of the table
BMP5 [15] = target: T7, BMP5; test: SPR (Biacore), worded summary of the table
BMP6 [16] = target: T8, BMP6; test: SPR (Biacore), worded summary of the table

Measured: binding

B1: ActRIIB-Fc homodimer (Fc fusion)
chain: GRGEAETRECIYYNANWELERTNQSGLERCEGEQDKRLHCYASWRNSSGTIELVKKGCWLDDFNCYDRQECVATEENPQVYFCCCEGNFCNERFTHLPEAGGPEVTYEPPPTAPT
notes: also called ActRIIB-Fc homodimeric complex; ActRIIB homodimer; not shown: linker and Fc domain of the homodimer
binds: BMP10 [1] | BMP9 [2] | GDF11 [3] | GDF3 [4] | GDF8 [5] | activin B [6] | BMP5 [7] | BMP6 [8] | BMP10 [9] | BMP9 [10] | GDF11 [11] | GDF3 [12] | GDF8 [13] | activin B [14] | BMP5 [15] | BMP6 [16]
